Reference: publication PMC6896172, “Successful Targeting of the Warburg Effect in Prostate Cancer by Glucose-Conjugated 1,4-Naphthoquinones” (Cancers, 2019)
The source gives many values for each of these; only a part stands here.

Tested on: 22Rv1 cells
Test: Global proteome analysis (LC-MS/MS, DIA) of differentially expressed proteins
Type: cell-based, human
Procedure: 22Rv1 cells were seeded in T75 culture bottles (4 × 10^6 cells/bottle in 20 mL/bottle), treated for 48 h with the 5 µM of compound 11 or vehicle (DMSO), harvested by scratching, washed twice with ice-cold PBS and flash-frozen. Cells were lysed and sonicated. The protein extracts were then heat-denaturated, reduced, alkylated and digested by trypsin. Peptides were chromatographically separated using full recovery autosampler vials and a nano-UPLC system (Acquity, Waters Corporation, Milford, MS, USA), coupled via electrospray ionization (ESI) to a tandem mass spectrometer equipped with a quadrupole and an orbitrap (QExactive, Thermo Fisher Scientific, Bremen, Germany), using MS/MS mode in data dependent acquisition (DDA) and data independent acquisition (DIA). The peptides, analyzed with DDA-LC-MS/MS, were identified with the search engine Sequest, integrated in the Proteome Discoverer software version 2.0 (Thermo Fischer Scientific) using the human Uniprot protein database (EMBL; Hinxton Cambridge, UK, release December 2018). […] For the details of sample preparation and proceeding, data acquisition and analysis see the Supplementary information. […]
serum (FBS, Invitrogen) and 1% penicillin/streptomycin (Invitrogen)). […]
Cell lines were lysed in 100 mM triethylammonium bicarbonate and 1% w/v sodium deoxycholate buffer followed by probe sonication to destroy polynucleotides and heat induce protein denaturing at 99 °C for 5 min. Protein concentrations were estimated with a bicinchonic acid (BCA) protein assay (Thermo Fisher Scientific, Bremen, Germany). 20 µg of protein were reduced in presence of 10 mM dithiotreithol (Sigma Aldrich) for 30 min at 60 °C followed by cysteine alkylation with 20 mM iodo acetamide (Sigma Aldrich) for 30 min at 37 °C in the dark and enzymatic degradation with sequencing grade trypsin (Promega) over night at 37 °C. Digestion was quenched with 1% formic acid (FA), precipitated sodium deoxycholate removed by centrifugation for 5 min at 14,000 g and the supernatant was dried in a vacuum centrifuge.
LC-MS/MS in Data Dependent and Data Independent Mode
Samples were resuspended in 0.1% FA and transferred into a full recovery autosampler vial (Waters). Chromatographic separation was achieved on a nano -UPLC system (Acquity, Waters Corporation, Milford, MS, USA) with a two-buffer-system (buffer A: 0.1% FA in water, buffer B:
0.1% FA in Acetonitrile (ACN), both at pH = 3). Attached to the UPLC was a reversed -phase peptide trapping column (Symmetry C18, 180 µm × 20 mm, 100 Å pore size, 5 µm particle size) for desalting, followed by a reversed-phase capillary separation of the tryptic peptides (BEH C18; 75 µm × 200 mm, 130 Å pore size, 1.7 µm particle size), using a 60 min gradient with increasing ACN concentration from 2–30% ACN. The eluting peptides were analyzed on a quadrupole-orbitrap mass spectrometer (QExactive, Thermo Fisher Scientific, Bremen, Germany) in data dependent acquisition (DDA) and data independent acquisition (DIA) for quantification.
In DDA mode, one replicate of each cell line was randomly chosen and 1 µg per sample was used per LC-MS/MS run to build a reference spectral library used for data extraction of samples acquired in DIA mode. For DDA, the 12 most intense ions per precursor scan (1 × 10 6 ions, 70,000 Resolution, 120 ms fill time) were analyzed by MS/MS (HCD at 25 normalized collision energy, 1 × 105 ions, 17,500 Resolution, 50 ms fill time) in a range of 400–1300 m/z. A dynamic precursor exclusion of 20 s was used. For DIA, 1 µg of each sample was analyzed using a 30 sequential 20 Da fixed window method covering the mass range from 400 –1000 m/z. Per cycle, 2 precursor scans (1 × […]
28 normalized collision energy, 1 × 106 ions, 17,500 Resolution, 50 ms fill time) were performed.
After the first precursor scan, 15 MS/MS scans were performed covering the precursor mass range from 400–700 m/z followed by the second precursor scan and another 15 MS/MS scans ranging from […]
LC-MS/MS Data Processing and Analysis […]

In the case of `CC1(C)OC2OC(C(O)COC3=CC(=O)c4cccc(O)c4C3=O)C(O)C2O1` (centres unmarked) [Compound 11], the “Fold change (treated / control)” value (IF4A1_HUMAN P60842) is reported as 0.6202, the “Fold change (treated / control)” value (IF6_HUMAN P56537) is reported as 1.149 and the “Fold change (treated / control)” value (IMA1_HUMAN P52292) is reported as 0.5682. The “Fold change (treated / control)” value (IPO4_HUMAN Q8TEX9) was 0.5203, the “Fold change (treated / control)” value (IPYR2_HUMAN Q9H2U2) was 1.308 and the “Fold change (treated / control)” value (IPYR_HUMAN Q15181) was 1.243. The “Fold change (treated / control)” value (JAM1_HUMAN Q9Y624) was 1.844, the “Fold change (treated / control)” value (K1C18_HUMAN P05783) was 1.686 and the “Fold change (treated / control)” value (K2C7_HUMAN P08729) was 0.6774. The “Fold change (treated / control)” value (K2C8_HUMAN P05787) was 1.371, the “Fold change (treated / control)” value (KAD2_HUMAN P54819) was 0.8046 and the “Fold change (treated / control)” value (KAP2_HUMAN P13861) was 1.245. For the same compound, the “Fold change (treated / control)” value (KCY_HUMAN P30085) was 1.424, the “Fold change (treated / control)” value (KDM2A_HUMAN Q9Y2K7) was 0.3972 and the “Fold change (treated / control)” value (KITH_HUMAN P04183) was 0.3876. The “Fold change (treated / control)” value (KPRB_HUMAN O60256) was 1.485, the “Fold change (treated / control)” value (KPYM_HUMAN P14618) was 1.184 and the “Fold change (treated / control)” value (LARP4_HUMAN Q71RC2) was 0.5045. For the same compound, the “Fold change (treated / control)” value (LDHA_HUMAN P00338) was 1.229, the “Fold change (treated / control)” value (LIMC1_HUMAN Q9UPQ0) was 2.0937 and the “Fold change (treated / control)” value (LIS1_HUMAN P43034) was 1.602. For the same compound, the “Fold change (treated / control)” value (LKHA4_HUMAN P09960) was 1.304, the “Fold change (treated / control)” value (LMNA_HUMAN P02545) was 1.282 and the “Fold change (treated / control)” value (LNP_HUMAN Q9C0E8) was 1.307. The “Fold change (treated / control)” value (LPPRC_HUMAN P42704) was 0.8791, the “Fold change (treated / control)” value (LRWD1_HUMAN Q9UFC0) was 0.5648 and the “Fold change (treated / control)” value (LSM2_HUMAN Q9Y333) was 1.955. For the same compound, the “Fold change (treated / control)” value (LYPA1_HUMAN O75608) was 1.345, the “Fold change (treated / control)” value (MATR3_HUMAN P43243) was 0.8834 and the “Fold change (treated / control)” value (MBB1A_HUMAN Q9BQG0) was 0.4544. The “Fold change (treated / control)” value (MBNL1_HUMAN Q9NR56) was 1.5, the “Fold change (treated / control)” value (MCA3_HUMAN O43324) was 1.338 and the “Fold change (treated / control)” value (MCCB_HUMAN Q9HCC0) was 0.8303. For the same compound, the “Fold change (treated / control)” value (MCES_HUMAN O43148) was 1.42, the “Fold change (treated / control)” value (MCM2_HUMAN P49736) was 0.5572 and the “Fold change (treated / control)” value (MCM3_HUMAN P25205) was 0.6329. The “Fold change (treated / control)” value (MCM4_HUMAN P33991) was 0.5634, the “Fold change (treated / control)” value (MCM5_HUMAN P33992) was 0.5949 and the “Fold change (treated / control)” value (MCM6_HUMAN Q14566) was 0.6119. For the same compound, the “Fold change (treated / control)” value (MCM7_HUMAN P33993) was 0.5855, the “Fold change (treated / control)” value (MCP_HUMAN P15529) was 0.1636 and the “Fold change (treated / control)” value (MET7A_HUMAN Q9H8H3) was 0.7217. For the same compound, the “Fold change (treated / control)” value (MGN2_HUMAN Q96A72) was 1.797, the “Fold change (treated / control)” value (MGN_HUMAN P61326) was 1.39 and the “Fold change (treated / control)” value (MIEN1_HUMAN Q9BRT3) was 0.6775. For the same compound, the “Fold change (treated / control)” value (MINP1_HUMAN Q9UNW1) was 1.762, the “Fold change (treated / control)” value (MIPEP_HUMAN Q99797) was 0.6023 and the “Fold change (treated / control)” value (MMSA_HUMAN Q02252) was 0.7267. The “Fold change (treated / control)” value (MOFA1_HUMAN Q9Y605) was 0.5421, the “Fold change (treated / control)” value (MPPB_HUMAN O75439) was 0.7358 and the “Fold change (treated / control)” value (MTA1_HUMAN Q13330) was 0.5631. For the same compound, the “Fold change (treated / control)” value (MTA2_HUMAN O94776) was 0.5939, the “Fold change (treated / control)” value (MTX1_HUMAN Q13505) was 1.3478 and the “Fold change (treated / control)” value (MVP_HUMAN Q14764) was 1.393. For the same compound, the “Fold change (treated / control)” value (MYDGF_HUMAN Q969H8) was 1.494, the “Fold change (treated / control)” value (MYH9_HUMAN P35579) was 1.516 and the “Fold change (treated / control)” value (MYL6_HUMAN P60660) was 1.584. For the same compound, the “Fold change (treated / control)” value (MZT1_HUMAN Q08AG7) was 0.7035, the “Fold change (treated / control)” value (NAMPT_HUMAN P43490) was 1.355 and the “Fold change (treated / control)” value (NASP_HUMAN P49321) was 0.7313. The “Fold change (treated / control)” value (NDK3_HUMAN Q13232) was 1.551, the “Fold change (treated / control)” value (NDUA2_HUMAN O43678) was 0.4769 and the “Fold change (treated / control)” value (NDUA3_HUMAN O95167) was 0.3195. For the same compound, the “Fold change (treated / control)” value (NDUA4_HUMAN O00483) was 0.4541, the “Fold change (treated / control)” value (NDUA6_HUMAN P56556) was 1.556 and the “Fold change (treated / control)” value (NDUAC_HUMAN Q9UI09) was 0.6076. For the same compound, the “Fold change (treated / control)” value (NDUB4_HUMAN O95168) was 0.7762, the “Fold change (treated / control)” value (NDUBA_HUMAN O96000) was 0.7553 and the “Fold change (treated / control)” value (NDUS1_HUMAN P28331) was 0.5206. For the same compound, the “Fold change (treated / control)” value (NDUV1_HUMAN P49821) was 0.6332, the “Fold change (treated / control)” value (NEP1_HUMAN Q92979) was 0.7224 and the “Fold change (treated / control)” value (NHLC2_HUMAN Q8NBF2) was 1.379. For the same compound, the “Fold change (treated / control)” value (NIF3L_HUMAN Q9GZT8) was 1.466, the “Fold change (treated / control)” value (NLTP_HUMAN P22307) was 1.224 and the “Fold change (treated / control)” value (NNTM_HUMAN Q13423) was 0.849. The “Fold change (treated / control)” value (NOG1_HUMAN Q9BZE4) was 0.5546, the “Fold change (treated / control)” value (NOP56_HUMAN O00567) was 0.7231 and the “Fold change (treated / control)” value (NPL4_HUMAN Q8TAT6) was 1.906. The “Fold change (treated / control)” value (NPM3_HUMAN O75607) was 0.7477, the “Fold change (treated / control)” value (NPM_HUMAN P06748) was 1.144 and the “Fold change (treated / control)” value (NSA2_HUMAN O95478) was 0.4343. For the same compound, the “Fold change (treated / control)” value (NSF1C_HUMAN Q9UNZ2) was 1.333, the “Fold change (treated / control)” value (NUCG_HUMAN Q14249) was 0.1894 and the “Fold change (treated / control)” value (NUD19_HUMAN A8MXV4) was 1.502. The “Fold change (treated / control)” value (NUP54_HUMAN Q7Z3B4) was 1.218, the “Fold change (treated / control)” value (OAT_HUMAN P04181) was 1.477 and the “Fold change (treated / control)” value (ODO1_HUMAN Q02218) was 0.8847. The “Fold change (treated / control)” value (ODO2_HUMAN P36957) was 1.1964, the “Fold change (treated / control)” value (ODPX_HUMAN O00330) was 0.7973 and the “Fold change (treated / control)” value (OSBL9_HUMAN Q96SU4) was 1.7847. For the same compound, the “Fold change (treated / control)” value (OST48_HUMAN P39656) was 0.9074, the “Fold change (treated / control)” value (OTUB1_HUMAN Q96FW1) was 1.339 and the “Fold change (treated / control)” value (P4HTM_HUMAN Q9NXG6) was 0.3114. The “Fold change (treated / control)” value (P5CR2_HUMAN Q96C36) was 0.455, the “Fold change (treated / control)” value (PA1B3_HUMAN Q15102) was 1.114 and the “Fold change (treated / control)” value (PB1_HUMAN Q86U86) was 0.6737. The “Fold change (treated / control)” value (PBDC1_HUMAN Q9BVG4) was 1.74, the “Fold change (treated / control)” value (PCBP1_HUMAN Q15365) was 0.8148 and the “Fold change (treated / control)” value (PCBP2_HUMAN Q15366) was 0.6786. The “Fold change (treated / control)” value (PCNA_HUMAN P12004) was 0.6578 and the “Fold change (treated / control)” value (PDCD6_HUMAN O75340) was 1.152.
